# Measurements from the supplement of paper PMC4371806.
# In all, about 2,300 compounds were measured (“plate-normalized OD600 growth (mean of duplicates)”: median about 0.29, lowest 2% from about 0.22 on). The list shows a part of the results.
# Tested on: Escherichia coli BW25113
# Assay: plate-normalized OD600 growth (mean of duplicates) (OD600 (normalized)); higher = more growth (less inhibition)
# Details: 10 µM
# Method: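 E. coli BW25113 in LB (100 µl, 96-well, no shaking) was exposed to 10 µM of each compound from a ~30,000-member library and grown at 37°C for 24 h or 15°C for 48 h, in duplicate. Growth was read as OD600 and the duplicate ODs were normalized across screening plates to correct plate-to-plate variation. Hits were >3σ below the mean OD600 at 15°C and <2σ below the mean at 37°C.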
SMILES,"plate-normalized OD600 growth (temperature: 15°C, 48 h)","plate-normalized OD600 growth (temperature: 37°C, 24 h)"
C/C(=N\N=C(/C)c1nnn(-c2nonc2N)c1C)c1ccc(Cl)cc1,0.245,0.616
COC(=O)C1=CN(CC2CCCO2)C=C(C(=O)OC)C1c1ccc(C)s1 (stereo not given),0.257,0.632
CCCCCCCCCC(=O)Oc1ccc(C)cc1-n1nc2ccccc2n1,0.239,0.603
COC(=O)c1ccc(C(=O)OC)nc1,0.268,0.653
COc1cc(C)cc(C(=O)O)c1NC(=O)C(C)(C)C,0.226,0.647
C=CCn1c2ccccc2c2nnc(SCC(=O)Nc3ncccn3)nc21,0.245,0.599
COc1ccccc1N1C(=O)C=C(c2ccc(Cl)cc2)C1=O,0.26,0.628
Cc1ccc2nc(NC(=O)C3CCCN3C(=O)Oc3ccccc3)sc2c1 (stereo not given),0.258,0.648
CSC(=NC#N)N1CCN(c2ccc([N+](=O)[O-])cn2)CC1,0.244,0.644
CCCC(C)c1ccc(O)c(N=Cc2c(C)c(Cl)c(C)c([N+](=O)[O-])c2O)c1 (stereo not given),0.247,0.613
Nc1nnc(Cc2ccc([N+](=O)[O-])cc2)s1,0.249,0.616
CCOc1ccc(-c2[nH]nc3c2C2(C(=O)Nc4ccc(C)c(Br)c42)C(C#N)=C(N)O3)cc1 (stereo not given),0.245,0.6
CC(C)(C)OC(=O)N1CCC(C(N)=O)CC1,0.242,0.616
O=C(c1ccco1)N1CCC(c2ccccc2)C1 (stereo not given),0.201,0.642
O=C(O)/C=C/c1ccc(S(=O)(=O)NN2C(=O)/C(=C/c3ccco3)N=C2c2ccccc2)cc1,0.252,0.61
CC(=O)c1csc(-c2ccc(C(F)(F)F)cc2)n1,0.253,0.622
O=C1CC2(CCCC2)C(=O)N1CCNc1nccc(C(F)(F)F)n1,0.261,0.637
COc1cc(OC)cc(-c2nc(-c3nonc3N)no2)c1,0.238,0.661
CCCCCCOc1cccc(N2C(=O)C(=O)C(=C(O)c3ccccc3)C2c2ccc(C(=O)OC)cc2)c1 (stereo not given),0.239,0.628
NC(=S)c1ccc2nonc2c1,0.253,0.612
CCc1ccc(/C(C)=N/NC(=O)CNC(=O)c2ccc(Cl)cc2)cc1,0.25,0.616
CCCCOC(=O)c1ccc(NC(=O)Nc2ccc(Cl)c(Cl)c2)cc1,0.254,0.621
N#Cc1nccnc1Sc1ccc(Cl)cc1,0.242,0.599
COc1ccc(N=NC(C(=N)N)C(N)=O)cc1 (stereo not given),0.235,0.652
CS/C(Nc1ccc(Br)cc1)=C(/C(=O)c1ccc(Br)cc1)n1ccnc1,0.249,0.606
O=C(N/N=C/c1ccc(OCc2ccccc2)cc1)C(=O)NC1CC1,0.258,0.637
COc1ccc(OC)c(S(=O)(=O)n2c([N+](=O)[O-])cnc2C)c1,0.255,0.612
O=C1c2ccccc2C(=O)N1CN1CCC(O)(c2ccc(Cl)cc2)CC1,0.253,0.614
Nc1c(C(=O)c2ccc(Br)cc2)sc2nc(-c3cccs3)cc(C(F)(F)F)c12,0.142,0.578
CCOC(=O)c1ccc(Oc2ccc(Cl)cc2Cl)c([N+](=O)[O-])c1,0.242,0.603

# An excerpt of these results, with tabs.
SMILES	plate-normalized OD600 growth (temperature: 15°C, 48 h)	plate-normalized OD600 growth (temperature: 37°C, 24 h)
COc1cc(C)cc(C(=O)O)c1NC(=O)C(C)(C)C	0.226	0.647
C=CCn1c2ccccc2c2nnc(SCC(=O)Nc3ncccn3)nc21	0.245	0.599
